The text below walks through data of publication PMC7948452.

Amino acid sequences for entries named in this document (tags omitted).
UniProt Q96EB6: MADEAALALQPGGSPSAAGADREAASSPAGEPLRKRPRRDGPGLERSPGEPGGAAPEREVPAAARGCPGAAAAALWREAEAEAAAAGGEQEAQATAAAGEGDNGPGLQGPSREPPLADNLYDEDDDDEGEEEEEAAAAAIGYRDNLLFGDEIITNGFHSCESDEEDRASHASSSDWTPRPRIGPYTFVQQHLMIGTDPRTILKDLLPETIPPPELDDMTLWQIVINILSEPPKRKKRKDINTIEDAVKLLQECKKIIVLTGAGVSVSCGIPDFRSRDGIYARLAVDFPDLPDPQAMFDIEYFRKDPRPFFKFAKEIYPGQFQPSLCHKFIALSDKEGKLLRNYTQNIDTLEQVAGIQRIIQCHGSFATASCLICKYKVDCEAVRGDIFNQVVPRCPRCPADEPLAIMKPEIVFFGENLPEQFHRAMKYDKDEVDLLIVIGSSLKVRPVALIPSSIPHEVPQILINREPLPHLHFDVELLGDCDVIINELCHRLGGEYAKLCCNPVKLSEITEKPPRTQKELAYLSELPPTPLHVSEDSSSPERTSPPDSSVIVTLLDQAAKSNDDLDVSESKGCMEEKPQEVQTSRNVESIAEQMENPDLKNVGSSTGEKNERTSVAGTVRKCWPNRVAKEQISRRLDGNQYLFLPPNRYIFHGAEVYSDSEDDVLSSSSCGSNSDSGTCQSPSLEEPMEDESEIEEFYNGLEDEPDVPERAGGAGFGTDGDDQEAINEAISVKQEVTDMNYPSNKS
UniProt Q13547: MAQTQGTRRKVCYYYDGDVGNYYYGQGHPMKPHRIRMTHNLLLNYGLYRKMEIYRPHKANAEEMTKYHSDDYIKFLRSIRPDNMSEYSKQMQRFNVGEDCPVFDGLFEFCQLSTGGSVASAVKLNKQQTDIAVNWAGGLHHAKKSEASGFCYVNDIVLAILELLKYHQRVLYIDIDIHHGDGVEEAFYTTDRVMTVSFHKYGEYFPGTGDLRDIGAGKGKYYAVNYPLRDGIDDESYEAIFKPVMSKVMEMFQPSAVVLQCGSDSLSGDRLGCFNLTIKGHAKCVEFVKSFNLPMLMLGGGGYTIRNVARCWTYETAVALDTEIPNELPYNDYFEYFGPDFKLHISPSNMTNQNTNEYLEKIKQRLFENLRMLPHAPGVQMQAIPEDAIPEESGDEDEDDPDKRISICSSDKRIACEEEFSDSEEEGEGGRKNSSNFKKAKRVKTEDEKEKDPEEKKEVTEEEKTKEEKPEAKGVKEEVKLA
UniProt Q09472: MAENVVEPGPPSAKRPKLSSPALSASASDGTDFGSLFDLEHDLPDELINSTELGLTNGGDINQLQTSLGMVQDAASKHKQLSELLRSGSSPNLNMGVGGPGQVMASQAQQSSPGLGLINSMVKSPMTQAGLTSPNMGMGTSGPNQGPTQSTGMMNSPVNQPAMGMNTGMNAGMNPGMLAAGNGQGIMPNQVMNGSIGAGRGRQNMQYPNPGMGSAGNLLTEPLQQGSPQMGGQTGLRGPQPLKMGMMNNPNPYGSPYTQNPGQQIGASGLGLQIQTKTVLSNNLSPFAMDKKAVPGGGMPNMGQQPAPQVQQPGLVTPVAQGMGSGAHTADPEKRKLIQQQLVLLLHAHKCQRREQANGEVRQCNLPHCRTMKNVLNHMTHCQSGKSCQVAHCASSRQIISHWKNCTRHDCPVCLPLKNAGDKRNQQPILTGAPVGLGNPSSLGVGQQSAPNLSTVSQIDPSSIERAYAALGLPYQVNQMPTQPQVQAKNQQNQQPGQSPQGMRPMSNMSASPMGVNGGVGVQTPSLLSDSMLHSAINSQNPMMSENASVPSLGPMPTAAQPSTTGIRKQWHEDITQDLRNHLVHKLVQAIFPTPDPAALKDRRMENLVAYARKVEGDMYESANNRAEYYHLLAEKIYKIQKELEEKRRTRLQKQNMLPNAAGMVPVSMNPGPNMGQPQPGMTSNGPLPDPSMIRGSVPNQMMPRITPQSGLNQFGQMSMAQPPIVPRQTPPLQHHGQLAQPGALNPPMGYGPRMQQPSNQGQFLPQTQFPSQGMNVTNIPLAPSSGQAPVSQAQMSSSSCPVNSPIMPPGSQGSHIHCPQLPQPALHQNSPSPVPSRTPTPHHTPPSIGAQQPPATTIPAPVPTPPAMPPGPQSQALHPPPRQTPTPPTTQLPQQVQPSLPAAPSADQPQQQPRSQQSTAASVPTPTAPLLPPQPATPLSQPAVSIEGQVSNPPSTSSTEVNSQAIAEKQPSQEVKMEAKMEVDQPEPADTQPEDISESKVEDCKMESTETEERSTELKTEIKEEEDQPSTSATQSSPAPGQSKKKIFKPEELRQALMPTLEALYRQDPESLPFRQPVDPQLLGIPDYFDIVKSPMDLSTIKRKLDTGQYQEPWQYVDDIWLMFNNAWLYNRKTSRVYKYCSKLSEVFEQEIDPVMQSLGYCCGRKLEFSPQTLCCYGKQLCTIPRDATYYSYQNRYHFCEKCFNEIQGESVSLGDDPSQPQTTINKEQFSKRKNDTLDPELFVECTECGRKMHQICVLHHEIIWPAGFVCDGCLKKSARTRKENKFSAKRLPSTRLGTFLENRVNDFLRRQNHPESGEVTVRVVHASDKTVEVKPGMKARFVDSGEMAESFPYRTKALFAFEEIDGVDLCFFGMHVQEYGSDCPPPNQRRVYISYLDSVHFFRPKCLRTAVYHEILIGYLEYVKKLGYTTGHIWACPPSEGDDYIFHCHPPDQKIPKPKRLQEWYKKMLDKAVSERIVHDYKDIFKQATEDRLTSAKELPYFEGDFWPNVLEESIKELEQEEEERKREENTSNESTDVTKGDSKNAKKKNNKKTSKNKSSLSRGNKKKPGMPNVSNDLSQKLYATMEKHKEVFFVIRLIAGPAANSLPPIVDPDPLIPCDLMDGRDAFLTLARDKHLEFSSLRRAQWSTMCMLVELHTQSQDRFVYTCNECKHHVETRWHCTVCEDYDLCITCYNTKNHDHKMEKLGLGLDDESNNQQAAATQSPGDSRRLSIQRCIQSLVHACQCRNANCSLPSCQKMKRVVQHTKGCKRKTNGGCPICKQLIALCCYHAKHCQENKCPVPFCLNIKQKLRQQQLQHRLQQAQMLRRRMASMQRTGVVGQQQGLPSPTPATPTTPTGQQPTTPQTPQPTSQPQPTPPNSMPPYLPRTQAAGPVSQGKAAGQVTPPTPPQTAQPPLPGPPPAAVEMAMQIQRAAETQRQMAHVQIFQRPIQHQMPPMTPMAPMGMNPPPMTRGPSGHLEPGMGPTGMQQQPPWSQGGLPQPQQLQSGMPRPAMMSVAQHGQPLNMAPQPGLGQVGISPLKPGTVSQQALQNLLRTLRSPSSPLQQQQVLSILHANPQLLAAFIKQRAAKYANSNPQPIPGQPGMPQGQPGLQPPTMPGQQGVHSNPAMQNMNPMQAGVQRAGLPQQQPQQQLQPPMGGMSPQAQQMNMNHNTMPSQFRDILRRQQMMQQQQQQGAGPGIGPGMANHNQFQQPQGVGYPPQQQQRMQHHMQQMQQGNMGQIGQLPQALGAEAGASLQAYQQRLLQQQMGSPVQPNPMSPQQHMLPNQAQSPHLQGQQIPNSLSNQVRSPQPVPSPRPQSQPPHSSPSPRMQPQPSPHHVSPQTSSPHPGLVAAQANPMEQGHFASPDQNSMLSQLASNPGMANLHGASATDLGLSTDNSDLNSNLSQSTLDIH
UniProt Q9NS91: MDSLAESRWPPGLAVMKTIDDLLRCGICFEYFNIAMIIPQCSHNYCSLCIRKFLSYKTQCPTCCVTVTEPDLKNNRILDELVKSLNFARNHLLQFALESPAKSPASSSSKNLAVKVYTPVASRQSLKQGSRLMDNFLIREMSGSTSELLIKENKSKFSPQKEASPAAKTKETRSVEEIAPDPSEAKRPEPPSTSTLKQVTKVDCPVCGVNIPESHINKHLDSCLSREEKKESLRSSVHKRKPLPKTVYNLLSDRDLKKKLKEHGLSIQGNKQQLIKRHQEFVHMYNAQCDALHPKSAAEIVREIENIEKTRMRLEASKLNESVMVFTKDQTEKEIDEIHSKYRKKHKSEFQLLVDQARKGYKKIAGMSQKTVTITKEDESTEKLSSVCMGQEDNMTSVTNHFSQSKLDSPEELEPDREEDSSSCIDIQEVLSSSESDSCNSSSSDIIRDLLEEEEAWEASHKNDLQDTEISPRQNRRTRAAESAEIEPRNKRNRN

Common to all, as to test: co-IP; 293T cells; lysis in 1% Triton X-100, 50 mM Tris-HCl pH 8.0, 150 mM NaCl; anti-FLAG M2 or anti-HA affinity gel, 2 h at 4 °C; five washes; elution with 3x FLAG peptide; western blot
(In general: Immunoblotting shows a protein as a band on a membrane.)

Experiment [1] has as its target T1, FLAG-TULP3 (human) (UniProt O75386).
T1 sequence: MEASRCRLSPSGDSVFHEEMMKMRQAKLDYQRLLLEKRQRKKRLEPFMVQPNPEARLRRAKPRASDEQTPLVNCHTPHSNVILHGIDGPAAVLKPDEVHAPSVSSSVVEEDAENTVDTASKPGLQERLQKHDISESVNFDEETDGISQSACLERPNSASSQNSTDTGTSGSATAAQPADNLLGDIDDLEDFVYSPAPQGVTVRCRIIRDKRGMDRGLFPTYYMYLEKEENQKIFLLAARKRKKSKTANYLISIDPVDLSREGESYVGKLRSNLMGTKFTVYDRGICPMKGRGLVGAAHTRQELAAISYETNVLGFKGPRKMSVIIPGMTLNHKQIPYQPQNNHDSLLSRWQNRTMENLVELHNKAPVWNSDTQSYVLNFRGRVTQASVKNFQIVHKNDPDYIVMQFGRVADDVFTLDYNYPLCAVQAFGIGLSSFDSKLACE

The target in experiment [2] is SIRT1 (human (endogenous in HEK293T)) (UniProt Q96EB6).
Experiment [3] concerns the target HA-HDAC1 (UniProt Q13547).
The target in experiment [4] is p300 (UniProt Q09472).
Experiment [5] concerns the target T1, FLAG-TULP3 (human). The source holds these as a separate data set.

Where two headings read alike, the source gives them in different places. No constants are given. Whether binding was seen depends on the method and setting. Binding seen in cells or lysates may run through a third protein. Some binding calls cover weakened binding; strength is not graded here. Where a sequence is shown, tags or fusion partners need not be part of it.

As to “p300 (from UniProt Q09472 1-2414) (enzyme)”, the binding result in experiment [1] is reported as “binds”.
Consider “HA-HDAC1 (from UniProt Q13547 1-482) (enzyme)”, for which the binding entry in experiment [1] is reported as “binds”.
Turning to “RAD18 (from UniProt Q9NS91 1-495) (enzyme)”, in experiment [1], the binding result was “binds”.

B1: FLAG-TULP3 (protein, UniProt O75386 1-442)
chain: MEASRCRLSPSGDSVFHEEMMKMRQAKLDYQRLLLEKRQRKKRLEPFMVQPNPEARLRRAKPRASDEQTPLVNCHTPHSNVILHGIDGPAAVLKPDEVHAPSVSSSVVEEDAENTVDTASKPGLQERLQKHDISESVNFDEETDGISQSACLERPNSASSQNSTDTGTSGSATAAQPADNLLGDIDDLEDFVYSPAPQGVTVRCRIIRDKRGMDRGLFPTYYMYLEKEENQKIFLLAARKRKKSKTANYLISIDPVDLSREGESYVGKLRSNLMGTKFTVYDRGICPMKGRGLVGAAHTRQELAAISYETNVLGFKGPRKMSVIIPGMTLNHKQIPYQPQNNHDSLLSRWQNRTMENLVELHNKAPVWNSDTQSYVLNFRGRVTQASVKNFQIVHKNDPDYIVMQFGRVADDVFTLDYNYPLCAVQAFGIGLSSFDSKLACE
For the molecule B1, the binding result in experiment [2], in experiment [3] and in experiment [4] was “binds” each time.

B2: PP6R3/SAPS3 (protein, UniProt Q5H9R7 1-873)
chain: MFWKFDLHSSSHIDTLLEREDVTLKELMDEEDVLQECKAQNRKLIEFLLKAECLEDLVSFIIEEPPQDMDEKIRYKYPNISCELLTSDVSQMNDRLGEDESLLMKLYSFLLNDSPLNPLLASFFSKVLSILISRKPEQIVDFLKKKHDFVDLIIKHIGTSAIMDLLLRLLTCIEPPQPRQDVLNWLNEEKIIQRLVEIVHPSQEEDRHSNASQSLCEIVRLSRDQMLQIQNSTEPDPLLATLEKQEIIEQLLSNIFHKEKNESAIVSAIQILLTLLETRRPTFEGHIEICPPGMSHSACSVNKSVLEAIRGRLGSFHELLLEPPKKSVMKTTWGVLDPPVGNTRLNVIRLISSLLQTNTSSINGDLMELNSIGVILNMFFKYTWNNFLHTQVEICIALILASPFENTENATITDQDSTGDNLLLKHLFQKCQLIERILEAWEMNEKKQAEGGRRHGYMGHLTRIANCIVHSTDKGPNSALVQQLIKDLPDEVRERWETFCTSSLGETNKRNTVDLVTTCHIHSSSDDEIDFKETGFSQDSSLQQAFSDYQMQQMTSNFIDQFGFNDEKFADQDDIGNVSFDRVSDINFTLNTNESGNIALFEACCKERIQQFDDGGSDEEDIWEEKHIAFTPESQRRSSSGSTDSEESTDSEEEDGAKQDLFEPSSANTEDKMEVDLSEPPNWSANFDVPMETTHGAPLDSVGSDVWSTEEPMPTKETGWASFSEFTSSLSTKDSLRSNSPVEMETSTEPMDPLTPSAAALAVQPEAAGSVAMEASSDGEEDAESTDKVTETVMNGGMKETLSLTVDAKTETAVFKSEEGKLSTSQDAACKDAEECPETAEAKCAAPRPPSSSPEQRTGQPSAPGDTSVNGPV
With B2, the binding result in experiment [5] is “binds”.
